Data as given in PubChem BioAssay AID504764 (Drosophila RNAi Screening Center, 2011).

Screen: 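Genes whose knock-down alters Notch-dependent transcription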 (primary screen)
System: Drosophila Kc167 cells
Reagent: long dsRNA against Drosophila genes
Time to read-out: about 5 days (4 days dsRNA, then 24 h after transfection)
Conditions: transfection of constitutively active membrane-tethered Notch lacking the extracellular domain, read 24 h later
Measured: 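Light from a Notch-responsive E(spl)m3 luciferase reporter under active Notch, with control-promoter and no-Notch reporter wells to normalise; raw counts from paired wells a and b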
Direction: induced reporter light, run 1, well a and induced reporter light, run 1, well b: higher = more light from the Notch target reporter with active Notch; control promoter light, run 1, well a and control promoter light, run 1, well b: higher = more light from the viral control promoter (cell number, transfection, viability); uninduced reporter light, run 1, well a: higher = more light from the Notch target reporter without active Notch
Hit rule: 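Hit if the duplicate-averaged log2 ratio of induced to control-promoter light gives a plate-wise z beyond ±2, or induced to uninduced beyond ±1.8; weak-control or discordant-duplicate wells dropped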
Meaning of the calls: active = modifier hit (raised or lowered Notch signal); inactive = not a hit
The deposit covers about 22,000 reagents; below is a random part of those that have a named target and a result. In the full data, 403 (1.9%) got an active call. 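Unnormalised raw counts per well; ratio z-scores behind the hit calls and whether each hit raises or lowers signal are not deposited.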 The numbers tell different reagents against one gene apart. Names joined by + are all predicted targets of the reagent. The record does not give: the amount of reagent.

CG33253 #1 scored induced reporter light, run 1, well a = 87185; induced reporter light, run 1, well b = 63190; control promoter light, run 1, well a = 82635; control promoter light, run 1, well b = 88485; uninduced reporter light, run 1, well a = 7985; inactive. Depletion of CG33253 #2 resulted in: induced reporter light, run 1, well a = 87515; induced reporter light, run 1, well b = 1.00e5; control promoter light, run 1, well a = 89010; control promoter light, run 1, well b = 1.48e5; uninduced reporter light, run 1, well a = 10740; inactive. Depletion of CG9890 gave: induced reporter light, run 1, well a = 1.71e5; induced reporter light, run 1, well b = 1.66e5; control promoter light, run 1, well a = 1.64e5; control promoter light, run 1, well b = 1.60e5; uninduced reporter light, run 1, well a = 12225; inactive. CG3857 gave induced reporter light, run 1, well a = 2.04e5; induced reporter light, run 1, well b = 2.38e5; control promoter light, run 1, well a = 2.99e5; control promoter light, run 1, well b = 2.84e5; uninduced reporter light, run 1, well a = 16765; inactive. CG6294 + CG6299 + CG15642 showed induced reporter light, run 1, well a = 55075; induced reporter light, run 1, well b = 53700; control promoter light, run 1, well a = 54550; control promoter light, run 1, well b = 64610; uninduced reporter light, run 1, well a = 8330; inactive. Depletion of CG2614 came out at: induced reporter light, run 1, well a = 2.11e5; induced reporter light, run 1, well b = 1.74e5; control promoter light, run 1, well a = 3.15e5; control promoter light, run 1, well b = 3.13e5; uninduced reporter light, run 1, well a = 13215; inactive.

Silencing of l(2)k05819 resulted in: induced reporter light, run 1, well a = 1.71e5; induced reporter light, run 1, well b = 1.97e5; control promoter light, run 1, well a = 1.82e5; control promoter light, run 1, well b = 2.19e5; uninduced reporter light, run 1, well a = 16170; inactive. After knock-down of Eig71Ef, the record shows induced reporter light, run 1, well a = 1.92e5; induced reporter light, run 1, well b = 1.24e5; control promoter light, run 1, well a = 2.00e5; control promoter light, run 1, well b = 2.20e5; uninduced reporter light, run 1, well a = 5740; inactive.

Copied from the listing for reference:
CG9890 — induced reporter light, run 1, well a: 1.71e5; induced reporter light, run 1, well b: 1.66e5; control promoter light, run 1, well a: 1.64e5; control promoter light, run 1, well b: 1.60e5; uninduced reporter light, run 1, well a: 12225; outcome: inactive
CG3857 — induced reporter light, run 1, well a: 2.04e5; induced reporter light, run 1, well b: 2.38e5; control promoter light, run 1, well a: 2.99e5; control promoter light, run 1, well b: 2.84e5; uninduced reporter light, run 1, well a: 16765; outcome: inactive

The list goes on.
For Gr85a the deposit lists induced reporter light, run 1, well a = 1.56e5; induced reporter light, run 1, well b = 2.25e5; control promoter light, run 1, well a = 1.95e5; control promoter light, run 1, well b = 2.18e5; uninduced reporter light, run 1, well a = 13685; inactive. For Akr1B, the values are induced reporter light, run 1, well a = 1.22e5; induced reporter light, run 1, well b = 1.23e5; control promoter light, run 1, well a = 1.02e5; control promoter light, run 1, well b = 50365; uninduced reporter light, run 1, well a = 8270; inactive. For sno, the entry reads induced reporter light, run 1, well a = 2.59e5; induced reporter light, run 1, well b = 2.56e5; control promoter light, run 1, well a = 3.21e5; control promoter light, run 1, well b = 3.43e5; uninduced reporter light, run 1, well a = 19140; inactive. Against Zasp66 #1, the values are induced reporter light, run 1, well a = 2.21e5; induced reporter light, run 1, well b = 2.04e5; control promoter light, run 1, well a = 2.31e5; control promoter light, run 1, well b = 2.07e5; uninduced reporter light, run 1, well a = 16155; inactive. Zasp66 #2 gave induced reporter light, run 1, well a = 1.18e5; induced reporter light, run 1, well b = 89640; control promoter light, run 1, well a = 59535; control promoter light, run 1, well b = 21945; uninduced reporter light, run 1, well a = 7965; inactive. For Zasp66 #3 the deposit lists induced reporter light, run 1, well a = 2.27e5; induced reporter light, run 1, well b = 2.04e5; control promoter light, run 1, well a = 2.42e5; control promoter light, run 1, well b = 1.93e5; uninduced reporter light, run 1, well a = 9330; inactive.
